For one molecule, IC50 results are on record in patent US20250120928A1, “SUBEROYLANILIDE HYDROXAMIC ACID (SAHA) DRUGS, CONJUGATES, AND NANOPARTICLES, AND METHODS OF USE THEREOF” (University of Maryland, Baltimore, priority 2021, published 2025).

The assay concerns unstimulated BMMØs. Description: MTS assay. In kind it is cell-based, C57BL/6J mice. The conditions noted are these: Mus musculus; unstimulated BMMØs treated for 48 hours; read-out: IC50 (MTS assay, cellular proliferation). How it is done:
The cytotoxicity of SAHA and SAHA-OH was evaluated using an MTS assay (Abcam; Cambridge, MA). […] BMMØs were pre-treated with various concentrations of SAHA or SAHA-OH for 48 hours. Cells were then washed with PBS and 50 μL of MTS solution was added to each well and incubated for 1 hour. The optical density (O.D.) of the solution was measured using a SpectraMax iD3 microplate reader at 570 nm. The percentage of cell proliferation was measured as the ratio of O.D. at 570 nm to no treatment control. IC50 values were calculated using GraphPad Prism 9 program based on a sigmoidal dose-response equation.

In the case of `O=C(CCCCCCC(=O)Nc1ccccc1)NO` [SAHA, N^1-hydroxy-N^8-phenyloctanediamide], the IC50 amounted to 500 nM.
